# Measured values reported in PubChem BioAssay AID587 (National Center for Advancing Translational Sciences (NCATS), 2007).
# The campaign covered roughly 59,000 compounds. About 35 (0.06%) were called active. Inconclusive means that the source gave no clear call. Such entries were picked first, then a sample of the others. Rule as the data show it: active = max dye-equivalent concentration above about 10 nM; inconclusive = between about 1.1 nM and that limit; inactive = weaker than that.
# Assay: qHTS Assay for Spectroscopic Profiling in Texas Red Spectral Region
# Settings: Compound fluorescence, Texas Red channel, 547/618 nm; hits give high values
# Outline: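 Pin-transferred compounds and Texas Red standards go into 100 mM Tris buffer, pH 8.0. After 15 min at room temperature, plates are imaged with 547/618 nm filters. Each value is a dye-equivalent concentration derived from the per-plate dye curve.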
row,SMILES,max dye-equivalent concentration
1,O=C(COC(=O)CCC1CCCC1)Nc1ccc(Cl)cn1,inconclusive: 1.8 nM
2,COc1ccc2cnn(Cc3ccccc3)c(=O)c2c1OC,inconclusive: 1.2 nM
3,Cn1c(=S)c2[nH]c(SCCCc3ccccc3)nc2n(C)c1=O,inactive
4,Cc1ccc(-n2nnnc2SCC(=O)c2cc(C)n(CC3CCCO3)c2C)cc1 (stereo not drawn),inconclusive: 1.1 nM
5,CC(C)COc1ccc(C(=O)OC2CC(C)(C)OCC2CN(C)C)cc1 (stereo not drawn),inconclusive: 1.4 nM
6,NC(N)=N[C@H](CCC(=O)O)C(=O)O,inactive
7,CC[N+](CC)(CC(=O)Nc1c(C)cccc1C)Cc1ccccc1,inconclusive: 1.7 nM
8,CCOC(=O)c1nnc2cc(-c3ccc(Br)cc3)nn2c1C,inconclusive: 1.1 nM
9,CN(C)c1ccc(/C=c2\sc3n(c2=O)CCCN=3)cc1,inactive
10,COc1ccc(-c2nnn(CC(=O)c3ccc4c(c3)OCCO4)n2)cc1OC,inconclusive: 1.3 nM
11,Cc1cccc(CNc2cc(-c3ccc(C(=O)N(C)C)cc3)ncn2)c1,inactive
12,COc1ccc(-c2ccc(-c3noc(-c4ccccc4C)n3)c(OC)n2)cc1,inconclusive: 1.1 nM
13,O=C(NCc1ccc2c(c1)OCO2)c1ccc2snnc2c1,inconclusive: 2.2 nM
14,CCc1c(C)nc(SC)n(CC#N)c1=O,inconclusive: 1.4 nM
15,C=CCn1c(NCCO)nc2c1c(=O)n(C)c(=O)n2C,inconclusive: 1.4 nM
16,S=c1[nH]nc(-c2ccncc2)n1CC1CCCO1 (stereo not drawn),inconclusive: 1.2 nM
17,O=C(O)c1ccccc1C(=O)Nc1cc2c(cc1Br)-c1ccccc1C2=O,inactive
18,CN(C)CCNc1c2c(c(C#N)c3nc4ccccc4n13)CCCC2,inconclusive: 1.8 nM
19,CC(=O)C1(C)OC(N)=C(C#N)C(c2ccccc2)C1(C#N)C#N (stereo not drawn),inactive
20,COc1ccc(CNc2nc(-c3ccccc3OC)nc3ccccc23)c(OC)c1,inactive
21,COc1ccc2[nH]cc(CCNc3ncncc3-c3cccc(NS(C)(=O)=O)c3)c2c1,inconclusive: 1.2 nM
22,CC(c1ccccc1)C1C(C#N)=C(N)SC(N)=C1C#N (stereo not drawn),inactive

row,SMILES,max dye-equivalent concentration
1,C=CCN=C(CC)C1=C(O)CCCC1=O,inconclusive: 2.7 nM
2,O=C(Nc1ccc2c(c1)OCO2)c1c(F)c(F)c(F)c(F)c1F,inconclusive: 1.1 nM
3,NCCCCN,inconclusive: 1.4 nM
4,O=C(CN1C(=O)c2ccccc2S1(=O)=O)N1CCN(c2ccccc2F)CC1,inconclusive: 1.4 nM
5,O=C(N[C@@]1(C(=O)O)C[C@@H]1c1ccccc1)c1ccccc1,inactive
6,COC(=O)c1cc(Br)c(=O)n(Cc2ccc(OC)c(OC)c2)c1,inconclusive: 1.7 nM
7,CCOC(=O)CC(=O)CSc1nnc2c(n1)[nH]c1ccccc12,inconclusive: 1.3 nM
8,COC(=O)CCC(=O)Nc1sc(C)c(C)c1C(N)=O,inconclusive: 1.2 nM
9,COc1ccc(O)c(-c2c(-c3ccc(Cl)cc3)n[nH]c2C)c1,inconclusive: 1.1 nM
10,Cc1nn(Cc2ccccc2Cl)c(C)c1C(=O)NC1=NCCS1,inconclusive: 1.1 nM
11,O=C(Nc1ccc(S(=O)(=O)NCc2ccccc2)cc1)Nc1ccc2c(c1)OCO2,inconclusive: 1.1 nM
12,CCOc1ccc(-n2c(COc3ccccc3)nnc2SCC(N)=O)cc1,inconclusive: 1.1 nM
13,CCOC(=O)C1CCN(CC(=O)Nc2c(C(=O)OC)n(C)c3cccc(C)c23)CC1,inconclusive: 1.7 nM
14,N=C(N)SCc1cccc2c(=O)cc(-c3ccccc3)oc12,inactive
15,CN(C)c1ncc2nc(CCc3ccccc3)c(=O)n(Cc3ccc(F)cc3)c2n1,inactive
16,COc1cccc(C2c3c(oc4ccccc4c3=O)C(=O)N2CCCN2CCOCC2)c1OC (stereo not drawn),inconclusive: 1.9 nM
17,CC(C)CCN1CC(C(=O)NC(C)C)CC1=O (stereo not drawn),inconclusive: 1.1 nM
18,Cc1ccccc1C(=O)c1cccn1CC(=O)NCc1ccco1,inconclusive: 1.1 nM
19,Cc1c(C(=O)N2CCN(c3ccccn3)CC2)oc2ccccc12,inconclusive: 1.1 nM
20,O=C(CSc1cccc2cccnc12)NCc1ccco1,inconclusive: 1.8 nM
21,CCN(Cc1ccncc1)C(=O)[C@@H](CO)c1ccccc1,inconclusive: 1.1 nM
22,Cc1cccc(-c2nc(CN3CCCC(C(=O)NC4CCC(C)CC4)C3)c(C)o2)c1 (stereo not drawn),inconclusive: 1.1 nM

# A section from further up, as a working copy:
row,SMILES,max dye-equivalent concentration
10,Cc1nn(Cc2ccccc2Cl)c(C)c1C(=O)NC1=NCCS1,inconclusive: 1.1 nM
11,O=C(Nc1ccc(S(=O)(=O)NCc2ccccc2)cc1)Nc1ccc2c(c1)OCO2,inconclusive: 1.1 nM

# The list continues.

row,SMILES,max dye-equivalent concentration
1,Cc1ccccc1N(CC(=O)NC1CCCC1)C(=O)CS(=O)CC(=O)Nc1ccc2c(c1)OCO2 (stereo not drawn),inconclusive: 1.4 nM
2,COC(=O)c1ccc(C2/C(=C(/O)c3ccc(OC(C)C)cc3)C(=O)C(=O)N2c2cc(C)on2)cc1 (stereo not drawn),inconclusive: 2.9 nM
3,CC1(C)S[C@@H]2[C@H](NC(=O)COc3ccccc3)C(=O)N2[C@H]1C(=O)O (tested in a mixture with another compound),inactive
4,CN(C(=O)COc1ccc(C(C)(C)C)cc1)C1CCS(=O)(=O)C1 (stereo not drawn),inconclusive: 3.1 nM
5,CCOC(=O)CSc1nc2cc(C(=O)N3CCC(C(N)=O)CC3)ccc2c(=O)n1-c1ccccc1,inconclusive: 1.2 nM
6,Cc1ccc(NC(=O)CSCc2c(C)noc2C)cc1C,inconclusive: 2.3 nM
7,COc1ccc(OC)c(S(=O)(=O)N(C)CC(=O)N2CCN(c3ccccc3)CC2)c1,inconclusive: 1.1 nM
8,CCOC(=O)CSc1nc2ccccc2c(=O)n1CCN1CCOCC1,inconclusive: 1.2 nM
9,CN1C(=O)SC(Nc2ccc(F)cc2)C1=O (stereo not drawn),inconclusive: 1.9 nM
10,COc1ccc(NC(=O)CSc2nnc(-c3ccoc3C)n2CCc2ccccc2)cc1,inconclusive: 1.1 nM
11,NCc1ccc(C(=O)O)cc1,inconclusive: 2.3 nM
12,Cc1onc(-c2c(F)cccc2Cl)c1C(=O)N1CCN(S(C)(=O)=O)CC1,inactive
13,Cn1cc(C(=O)c2ccc(F)cc2)cc1-c1nc2ccccc2n1C,inconclusive: 1.1 nM
14,CC1(C)Cc2cccc(OCC(=O)N3CCN(S(=O)(=O)c4ccccc4)CC3)c2O1,inconclusive: 1.2 nM
15,COc1ccccc1OCc1nnc(SCC(=O)c2cc(Cl)ccc2OC)o1,inconclusive: 1.3 nM
16,C=CCn1c(/N=C/c2ccc(N(C)C)cc2)nc2ccccc21,inactive
17,Cc1ccc(-n2nnc3c(=O)n(CC(=O)N4CCC(C)CC4)cnc32)cc1,inconclusive: 1.1 nM
18,CN(C)c1nc(N)c(C(=O)N=C(N)N)nc1Cl,inconclusive: 1.4 nM
19,CS(=O)(=O)N(CC(=O)NC1CC2CCC1C2)c1cccc(C(F)(F)F)c1 (stereo not drawn),inconclusive: 1.3 nM
20,CC(CC(=O)O)CC(=O)Nc1ccccc1C(=O)O (stereo not drawn),inconclusive: 1.1 nM
21,Cc1ccccc1Nc1nc(N)nc(CN(C)c2ccccc2)n1,inconclusive: 1.1 nM
22,O=C(COC(=O)c1cccc(S(=O)(=O)N2CCOCC2)c1)Nc1ccc2c(c1)OCO2,inconclusive: 3.1 nM

row,SMILES,max dye-equivalent concentration
1,CCCOC(=O)CSC1=C(C#N)C(c2ccc3c(c2)OCO3)CC(=O)N1 (stereo not drawn),inconclusive: 1.1 nM
2,CN(C)Cc1ccccc1-c1nc(NCc2cccs2)c2ccccc2n1,inactive
3,CN1CCN(CCC(=O)Nc2cccc(F)c2)CC1,inconclusive: 1.7 nM
4,COC(=O)NCc1ccc(S(=O)(=O)N2CCOCC2)cc1,inconclusive: 1.6 nM
5,COc1ccccc1C1/C(=C(/O)c2ccccc2)C(=O)C(=O)N1CC(C)C (stereo not drawn),inconclusive: 1.3 nM
6,CC(=O)c1c(C)[nH]c(C(=O)NCCC2=CCCCC2)c1C,inconclusive: 2.2 nM
7,Cc1ccc(NC(=O)N(Cc2cc3cc(C)cc(C)c3[nH]c2=O)CC2COCCO2)cc1 (stereo not drawn),inconclusive: 1.8 nM
8,c1csc(Cn2c(-c3cccs3)nc3ccccc32)c1,inconclusive: 1.1 nM
9,CCN(CC)c1ccc(NC(=O)Cn2nnc(-c3cccc(OC)c3OC)n2)c(C)c1,inconclusive: 1.9 nM
10,CCCCOc1ccc(C2C3CN(C(=O)OCC)CC=C3C(C#N)=C(N)C2(C#N)C#N)cc1OC (stereo not drawn),inactive
11,CCOC(=O)C1=C(C(C)=O)C(c2cccnc2)C(C#N)=C(N)O1 (stereo not drawn),inconclusive: 2.6 nM
12,Cc1ccc(C)c(CN2C(=O)C(C)Oc3ccc(C)cc32)c1 (stereo not drawn),inconclusive: 1.6 nM
13,C=C1CC[C@@H]2[C@](C)(CC[C@@H](O)[C@]2(C)CO)[C@@H]1C/C=C1/C(=O)OC[C@H]1O,inactive
14,Cc1cc(C)n(C(=O)COc2c(C)cccc2C)n1,inactive
15,O=c1[nH]c2cc(Cl)c(Cl)cc2[nH]c1=O,inconclusive: 1.4 nM
16,Cc1ccc(C(c2nnnn2C(C)(C)C)N(Cc2ccco2)Cc2cccs2)cc1 (stereo not drawn),inconclusive: 1.5 nM
17,CC(=O)NC(C)c1nc2ccccc2n1Cc1ccccc1F (stereo not drawn),inconclusive: 1.4 nM
18,CC(NCCO)C(=O)C12CC3CC(CC(C3)C1)C2 (stereo not drawn),inactive
19,O=C(Nc1ccccc1)c1cnc[nH]1,inconclusive: 1.2 nM
20,CC(C)C(OC(=O)c1cccs1)C(=O)NCc1cccs1 (stereo not drawn),inconclusive: 1.6 nM
21,Cc1ccc(C(C(=O)NC2CCCC2)N(Cc2cccnc2)C(=O)c2snc(C(N)=O)c2N)o1 (stereo not drawn),inconclusive: 2.5 nM
22,CN1CCN(C(=O)CSc2nc(-c3cccs3)cc(-c3cccs3)c2C#N)CC1,inconclusive: 1.8 nM

# Given as tab-separated lines: 2 of the compounds above.
row	SMILES	max dye-equivalent concentration
6	CC(=O)c1c(C)[nH]c(C(=O)NCCC2=CCCCC2)c1C	inconclusive: 2.2 nM
22	CN1CCN(C(=O)CSc2nc(-c3cccs3)cc(-c3cccs3)c2C#N)CC1	inconclusive: 1.8 nM
